Measurements published in patent US20190284272A1 (published 2019).
These are yes or no findings as the source states them, for the method shown. Some binding calls cover weakened binding; strength is not graded here.

T1: equine IL-31 protein (Equine_IL31) (equine)
T1 sequence: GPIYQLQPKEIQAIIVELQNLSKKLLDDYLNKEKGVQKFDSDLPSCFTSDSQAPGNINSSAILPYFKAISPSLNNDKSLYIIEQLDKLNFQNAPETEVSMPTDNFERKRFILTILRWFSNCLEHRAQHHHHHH


Biological target: T1, equine IL-31 protein (Equine_IL31) (equine)
Assay: Biacore, IL-31 surface, single antibody concentration (FIG. 4)

Row | binding | Binder
1 | binds | ZIL1 (antibody, V domains shown) VH: EVQLVESGGDLVKPGGSLRLSCVASGFTFSSYGMSWVRQAPGKGLQWVAHINSGGSSTYYADAVKGRFTISRDNAKNTLYLQMNSLRAEDTAVYYCVEVYTTLAAFWTDNFDYWGQGTLVTVSS VL: QSVLTQPTSVSGSLGQRVTISCSGSTNNIGILAATWYQQLPGKAPKVLVYSDGNRPSGVPDRFSGSKSGNSATLTITGLQAEDEADYYCQSFDTTLDAYVFGSGTQLTVLR
2 | binds | ZIL9 (antibody, V domains shown) VH: EVQLVESGGDLVKPPGSLRLSCVASGFTFSSYDMTWVRQAPGKGLQWVADVNSGGTGTAYAVAVKGRFTISRDNAKKTLYLQMNSLRAEDTAVYYCAKLGVRDGLSVWGQGTLVTVSS VL: SSVLTQPPSVSVSLGQTATISCSGESLNEYYTQWFQQKAGQAPVLVIYRDTERPSGIPDRFSGSSSGNTHTLTISGARAEDEADYYCESAVDTGTLVFGGGTHLAVLR
